## Percent effect of library compounds

Sequences of proteins named here, by UniProt entry; tags and fusion partners are left off. Residues count along the entry.
UniProt P9WPC5, whole entry: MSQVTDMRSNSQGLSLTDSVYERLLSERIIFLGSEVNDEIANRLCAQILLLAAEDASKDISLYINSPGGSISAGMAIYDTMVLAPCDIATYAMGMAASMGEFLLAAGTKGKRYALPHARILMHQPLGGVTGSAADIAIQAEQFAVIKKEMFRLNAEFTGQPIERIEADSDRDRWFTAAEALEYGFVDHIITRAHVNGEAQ
UniProt P9WPC3, whole entry partner: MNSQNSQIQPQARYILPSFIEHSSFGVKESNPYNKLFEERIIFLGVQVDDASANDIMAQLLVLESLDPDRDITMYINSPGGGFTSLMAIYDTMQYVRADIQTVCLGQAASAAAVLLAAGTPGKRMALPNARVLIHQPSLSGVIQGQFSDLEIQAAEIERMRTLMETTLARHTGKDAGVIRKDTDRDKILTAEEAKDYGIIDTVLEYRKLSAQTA
UniProt I6X8D2, whole entry: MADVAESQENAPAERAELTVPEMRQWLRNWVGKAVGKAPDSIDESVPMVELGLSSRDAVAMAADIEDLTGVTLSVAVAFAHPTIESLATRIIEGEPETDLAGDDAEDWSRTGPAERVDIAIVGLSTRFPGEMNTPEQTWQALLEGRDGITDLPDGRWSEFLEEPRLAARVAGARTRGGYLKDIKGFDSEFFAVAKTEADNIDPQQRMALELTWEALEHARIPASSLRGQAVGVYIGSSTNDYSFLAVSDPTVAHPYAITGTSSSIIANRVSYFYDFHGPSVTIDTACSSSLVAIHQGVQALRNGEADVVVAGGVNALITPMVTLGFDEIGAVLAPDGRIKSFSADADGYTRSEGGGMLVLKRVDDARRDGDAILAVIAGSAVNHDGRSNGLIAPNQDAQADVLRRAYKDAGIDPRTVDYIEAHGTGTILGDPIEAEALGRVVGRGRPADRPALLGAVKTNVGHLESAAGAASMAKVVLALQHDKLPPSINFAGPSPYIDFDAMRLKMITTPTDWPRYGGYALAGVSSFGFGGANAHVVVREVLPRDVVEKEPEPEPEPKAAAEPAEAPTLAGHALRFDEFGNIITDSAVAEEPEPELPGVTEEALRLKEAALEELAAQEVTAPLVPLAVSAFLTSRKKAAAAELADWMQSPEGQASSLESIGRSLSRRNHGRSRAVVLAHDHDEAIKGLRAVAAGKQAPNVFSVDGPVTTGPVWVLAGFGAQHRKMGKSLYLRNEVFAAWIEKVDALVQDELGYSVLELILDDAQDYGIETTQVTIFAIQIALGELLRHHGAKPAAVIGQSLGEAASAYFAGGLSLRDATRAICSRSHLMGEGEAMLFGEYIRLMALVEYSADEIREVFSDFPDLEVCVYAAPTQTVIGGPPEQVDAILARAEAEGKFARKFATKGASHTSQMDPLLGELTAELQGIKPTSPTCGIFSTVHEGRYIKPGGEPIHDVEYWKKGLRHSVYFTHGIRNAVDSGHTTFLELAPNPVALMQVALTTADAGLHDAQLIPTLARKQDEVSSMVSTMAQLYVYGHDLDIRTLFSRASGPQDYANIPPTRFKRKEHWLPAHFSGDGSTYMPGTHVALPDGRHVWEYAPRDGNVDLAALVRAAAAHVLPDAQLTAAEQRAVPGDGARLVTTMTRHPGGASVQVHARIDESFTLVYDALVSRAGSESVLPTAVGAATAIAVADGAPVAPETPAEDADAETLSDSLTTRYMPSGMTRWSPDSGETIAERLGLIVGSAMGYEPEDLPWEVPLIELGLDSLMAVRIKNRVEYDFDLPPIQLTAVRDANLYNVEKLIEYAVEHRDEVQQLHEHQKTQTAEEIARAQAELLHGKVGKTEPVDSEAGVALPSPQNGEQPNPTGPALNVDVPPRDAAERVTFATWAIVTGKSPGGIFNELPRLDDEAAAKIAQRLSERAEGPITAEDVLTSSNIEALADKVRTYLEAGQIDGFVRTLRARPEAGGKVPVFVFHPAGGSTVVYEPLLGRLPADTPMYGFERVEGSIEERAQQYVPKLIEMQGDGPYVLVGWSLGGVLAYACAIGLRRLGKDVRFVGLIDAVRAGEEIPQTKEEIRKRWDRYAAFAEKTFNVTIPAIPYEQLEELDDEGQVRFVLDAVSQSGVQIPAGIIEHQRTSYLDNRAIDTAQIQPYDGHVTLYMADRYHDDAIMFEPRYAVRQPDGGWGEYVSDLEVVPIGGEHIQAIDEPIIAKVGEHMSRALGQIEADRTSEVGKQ
UniProt Q8IDJ8, 1-583: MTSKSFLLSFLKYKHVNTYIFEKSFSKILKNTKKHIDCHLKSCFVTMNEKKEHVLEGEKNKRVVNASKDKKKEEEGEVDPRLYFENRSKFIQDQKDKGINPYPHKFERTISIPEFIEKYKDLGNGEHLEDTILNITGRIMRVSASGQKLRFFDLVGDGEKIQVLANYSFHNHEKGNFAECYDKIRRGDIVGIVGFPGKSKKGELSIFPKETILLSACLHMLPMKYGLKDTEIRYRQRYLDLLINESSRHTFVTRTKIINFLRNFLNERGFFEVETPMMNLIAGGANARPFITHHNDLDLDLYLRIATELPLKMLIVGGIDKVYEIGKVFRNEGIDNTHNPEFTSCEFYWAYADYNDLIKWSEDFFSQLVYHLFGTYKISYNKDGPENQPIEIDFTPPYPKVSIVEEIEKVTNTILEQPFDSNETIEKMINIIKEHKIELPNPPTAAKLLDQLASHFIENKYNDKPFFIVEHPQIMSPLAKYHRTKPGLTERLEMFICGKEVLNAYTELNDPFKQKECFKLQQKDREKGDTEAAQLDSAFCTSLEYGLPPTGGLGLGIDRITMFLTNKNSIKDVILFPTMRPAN

Source: ChEMBL document CHEMBL3988442, “University of Dundee, Small-Polar-MMV Screening Library” (2021).

ClpP1P2: 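ClpP1P2, Mycobacterium tuberculosis (UniProt P9WPC5 and UniProt P9WPC3). Protease assay of ClpP1P2, read by the AMC dye that it sets free. Compounds at 50 µM. Higher reads as stronger inhibition, judged from the few compounds that gave an IC50. Most other retested compounds had strongly negative values. Of about 69,000 compounds tested this way, about 10 (0.015%) reached 50% or more in at least one test.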
Leishmania in macrophages: 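Cell assay of Leishmania donovani living inside macrophages; the read-out is not stated. Concentration: 30 µM. The record gives no direction; compounds that gave an IC50 in retests scored well above the rest, so higher reads as stronger inhibition. Of about 69,000 compounds tested this way, about 1,000 (1.5%) reached 50% or more in at least one test.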
Pks13 thioesterase: 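Enzyme assay of the thioesterase domain of polyketide synthase 13; the read-out is not stated. Target: Polyketide synthase Pks13, Mycobacterium tuberculosis (UniProt I6X8D2). Concentration: 30 µM. The record gives no direction; the compounds picked for IC50 retests had high values, so higher reads as stronger inhibition. Of about 67,000 compounds tested this way, about 300 (0.46%) reached 50% or more in at least one test.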
PfKRS1: 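Lysine-tRNA ligase, Plasmodium falciparum 3D7 (UniProt Q8IDJ8). Enzyme assay of the cytosolic lysyl-tRNA synthetase in 384-well plates, read by luminescence. Tested at 30 µM. Higher reads as stronger inhibition, judged from the few compounds that gave an IC50. About 69,000 compounds were tested under these conditions; 0.071% (about 49) showed 50% or more at least once.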
Toxoplasma: 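Assay of Toxoplasma gondii numbers, read through their beta-galactosidase reporter with a colour substrate. Compounds at 10 µM. Higher reads as fewer parasites (inferred from which compounds were picked for retests). Size under these conditions: about 67,000 compounds, about 260 of them at 50% or above in at least one test.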

Results are given as percent effect.
The record does not define 0% and 100%; most values in the screen are far below 50% and negative numbers occur (in some assays of this library far below -100).
This is an unselected part of the compounds tested.
Two or more numbers in one place are separate tests of the same structure; such repeats can differ widely.
A dash means the value is not listed here; it may have been measured.

structure,ClpP1P2,Leishmania in macrophages,Pks13 thioesterase,PfKRS1,Toxoplasma
O=C(NCc1ccco1)[C@H]1C[C@H]2OCC[C@H]2N(C(=O)c2ccncc2)C1,-9.031,-,3.739,0,-
Cc1cccc(CN2CC[C@@H]3[C@@H]2CCN3C(=O)c2ccno2)n1,2.396,-,-3.002,3.095,-
Fc1ccccc1Sc1ccccc1CNC1=NCCN1.I,-,29.36,-,-,27.23
O=C(c1cnc(NCC2CCCO2)c(Cl)c1)N1CCOCC1 (stereo not given),-1.67,29.41,-5.267,4.298,10.51
Cc1nc(C)c(CC(=O)N2C[C@@H]3CC[C@H](C2)N(CC2CC2)C3)s1,2.703,-,-17.96,-0.3448,-
CCCc1n[nH]c(C2CN(C(=O)c3cc(F)ccc3OC)CCO2)n1 (stereo not given),2.278,21.09,-3.7,3.71,2.574
CN(Cc1cnn(C)c1)S(=O)(=O)N1CCCC1c1ccco1 (stereo not given),-9.571,-4.111,-29.48,0.6822,2.784
CC(C)N1CCC(NCc2cccnc2N(C)Cc2ccccc2)CC1,3.291,29.89,-23.21,7.964,-6.057
COc1cc(N2CCn3cc(CNc4ccccn4)nc3C2)ncn1,-6.363,22.98,-22.93,2.105,3.202
CCNc1nnc(SC(C(=O)NCc2cccnc2)C(C)C)s1 (stereo not given),4.721,4.474,-2.764,1.031,10.26
COCCOCC(=O)Nc1nc2c(OC)cc(F)cc2s1,2.232,2.465,-43.84,3.041,9.639
CNc1cnc(CC2COCCN(Cc3ccccc3)C2)cn1 (stereo not given),-133.8,24.04,13.34,-2.39,4.357
[H][C@@]12CCCO[C@]1([H])[C@H](OCc1ccccn1)CN2S(=O)(=O)N(C)C,-,13.71 & 1.512,-,-,0.9029
COc1ccnc(NC2CCN(CC(=O)N3CCCC3)CC2)n1,5.311,7.722,-26.63,5.431,5.989
CSc1ccc(CN2CCC(CCC(=O)Nc3ccccc3)CC2)cc1,-7.479,-15.21,9.635,-6.222,-10.05
Cc1cc(CNC(=O)NC(C)c2ccc(N3CCOCC3)cc2)no1 (stereo not given),-5.564,1.703,-12.52,4.618,2.335
CN(C)C(=O)c1nc(CN2C(=O)OC[C@@H]2c2ccccc2)no1,-5.05,-18.36,9.531,2.895,0.5945
CN(C)C(=O)c1cc2c(nc1NCC1CC1)CCNCC2,11.19,-8.644,-20.08,-1.435,23.69
Cc1cccc(C(CNC(=O)NCc2cc[nH]n2)N2CCOCC2)c1 (stereo not given),-31.44,22.78,-25.01,1.881,-4.597